Assay results published in the supplement of paper PMC10331698.
± gives the standard deviation of the averaged measurements. Most values lie at the level of the controls, where differences are scatter.

What was measured:
Assay in all cases: level (log10 ratio to DMSO vehicle control); higher = higher biomarker level / cell amount than vehicle control
[1] = compound: O=C(O)C(F)(F)C(F)(F)C(F)(F)C(F)(F)C(F)(F)C(F)(F)C(F)(F)C(F)(F)C(F)(F)C(F)(F)C(F)(F)C(F)(F)C(F)(F)F [Perfluorotetradecanoic acid]; conditions: in DMSO
Protocol: (§1)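 BioMAP Diversity Plus panel of 12 human primary cell co-culture systems (3C, 4H, LPS, SAg, BT, BF4T, BE3C, CASM3C, HDF3CGF, KF3CT, MyoF, Mphg). Compounds were added 1 h before stimulation and left for 24 h (MyoF 48 h; BT 72 h for soluble read-outs or 6 d for IgG). Biomarkers were read by ELISA, cytotoxicity by SRB, PBMC viability and proliferation by Alamar Blue. Each well value was divided by the mean of 8 DMSO control wells on the same plate and log10 transformed; duplicate blinded samples were tested at 4 concentrations.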

[2] = compound: O=S(=O)(O)C(F)(F)C(F)(F)C(F)(F)C(F)(F)C(F)(F)C(F)(F)F [Perfluorohexanesulfonic acid]; conditions: 2200 nM; in DMSO
Protocol: as §1

[3] = compound: FC(F)(I)C(F)(F)C(F)(F)C(F)(F)C(F)(F)C(F)(F)I [1,6-Diiodoperfluorohexane]; conditions: 2200 nM; in DMSO
Protocol: as §1

[4] = compound: O=S(=O)(O)CCC(F)(F)C(F)(F)C(F)(F)C(F)(F)F [4:2 Fluorotelomer sulfonic acid]; conditions: 2200 nM; in DMSO
Protocol: as §1

[5] = compound: OCCCC(F)(F)C(F)(F)C(F)(F)C(F)(F)C(F)(F)C(F)(F)C(F)(F)F [7:3 Fluorotelomer alcohol]; conditions: 2200 nM; in DMSO
Protocol: as §1

[6] = compound: C=CC(=O)OCC(F)(F)C(F)(F)C(F)(F)COC(=O)C=C [1H,1H,5H,5H-Perfluoro-1,5-pentanediol diacrylate]; conditions: 2200 nM; in DMSO
Protocol: as §1

[7] = compound: C=CC(=O)OCCC(F)(F)C(F)(F)C(F)(F)C(F)(F)F [2-(Perfluorobutyl)ethyl acrylate]; conditions: 2200 nM; in DMSO
Protocol: as §1

Perfluoro-1-iodohexane = compound: FC(F)(F)C(F)(F)C(F)(F)C(F)(F)C(F)(F)C(F)(F)I [Perfluoro-1-iodohexane]; conditions: in DMSO
Protocol: as §1

[8] = compound: O=C(O)C=C(C(F)(F)F)C(F)(F)F [3,3-Bis(trifluoromethyl)-2-propenoic acid]; conditions: in DMSO
Protocol: as §1

[9] = compound: O=C(Cl)C(F)(F)C(F)(F)C(F)(F)C(=O)Cl [Hexafluoroglutaryl chloride]; conditions: 2200 nM; in DMSO
Protocol: as §1

[10] = compound: C=CC(=O)OCCC(F)(F)C(F)(F)C(F)(F)C(F)(F)C(F)(F)C(F)(F)C(F)(F)C(F)(F)F [8:2 Fluorotelomer acrylate]; conditions: 2200 nM; in DMSO
Protocol: as §1

Hexafluoroamylene glycol = compound: OCC(F)(F)C(F)(F)C(F)(F)CO [Hexafluoroamylene glycol]; conditions: 2200 nM; in DMSO
Protocol: as §1

[11] = compound: FC(F)(F)C(F)(C(F)(F)F)C(F)(F)C(F)(F)CC1CO1 [3-(Perfluoro-3-methylbutyl)-1,2-propenoxide]; conditions: in DMSO
Protocol: as §1

Row | Test System | level (log10) ([1]; 740 nM) | level (log10) ([1]; 2200 nM) | level (log10) [2] | level (log10) [3] | level (log10) [4] | level (log10) [5] | level (log10) [6] | level (log10) [7] | level (log10) (Perfluoro-1-iodohexane; 2200 nM) | level (log10) (Perfluoro-1-iodohexane; 6700 nM) | level (log10) (Perfluoro-1-iodohexane; 20000 nM) | level (log10) (Perfluoro-1-iodohexane; 60000 nM) | level (log10) ([8]; 2200 nM) | level (log10) ([8]; 6700 nM) | level (log10) ([8]; 20000 nM) | level (log10) ([8]; 60000 nM) | level (log10) [9] | level (log10) [10] | level (log10) (Hexafluoroamylene glycol) | level (log10) ([11]; 740 nM) | level (log10) ([11]; 2200 nM)
1 | 4H:CCL26/Eotaxin-3 | -0.0025 ± 0.016 | -0.053 ± 0.05 | -0.0245 ± 0.00071 | 0.0105 ± 0.016 | -0.0035 ± 0.049 | 0.0105 ± 0.00071 | -0.0605 ± 0.025 | -0.0045 ± 0.043 | 0.0005 ± 0.011 | 0.014 ± 0.013 | 0.016 ± 0.017 | 0.016 ± 0.021 | -0.0075 ± 0.09 | -0.02 ± 0.044 | -0.042 ± 0.0042 | -0.121 ± 0.0064 | -0.009 ± 0.045 | 0.0565 ± 0.03 | 0.058 ± 0.033 | 0.019 ± 0.018 | 0.006
2 | CASM3C:CD141/Thrombomodulin | 0.033 ± 0.011 | 0.0105 ± 0.035 | -0.0175 ± 0.018 | -0.0285 ± 0.049 | 0.0075 ± 0.0021 | -0.0105 ± 0.018 | -0.016 ± 0.023 | -0.0175 ± 0.005 | 0.003 ± 0.016 | 0.0055 ± 0.015 | -0.006 ± 0.0028 | -0.004 ± 0.0028 | 0.006 | 0.03 ± 0.0071 | 0.0275 ± 0.0064 | 0.026 ± 0.0028 | 0.03 ± 0.025 | -0.0125 ± 0.018 | 0.019 ± 0.065 | -0.023 ± 0.011 | 0.0175 ± 0.026
3 | LPS:CXCL8/IL-8 | 0.011 ± 0.0085 | -0.0075 ± 0.0035 | 0.0115 ± 0.019 | 0.0055 ± 0.012 | 0.0355 ± 0.093 | 0.001 ± 0.033 | 0.0065 ± 0.016 | 0.0205 ± 0.012 | -0.0225 ± 0.005 | -0.0045 ± 0.015 | 0.005 | 0.015 ± 0.017 | -0.0265 ± 0.035 | -0.052 ± 0.0099 | -0.047 ± 0.037 | -0.007 ± 0.069 | -0.0155 ± 0.032 | 0.0145 ± 0.064 | 0.05 ± 0.04 | 0.0345 ± 0.012 | 0.025 ± 0.048
4 | 3C:SRB | -0.026 ± 0.0042 | -0.0295 ± 0.0064 | -0.0175 ± 0.032 | 0.0185 ± 0.028 | -0.013 ± 0.0099 | 0.002 ± 0.013 | -0.0035 ± 0.021 | 0.003 ± 0.016 | 0.0035 ± 0.005 | -0.0035 ± 0.00071 | -0.0155 ± 0.00071 | -0.0155 ± 0.0021 | 0.0135 ± 0.028 | 0.0105 ± 0.019 | -0.005 ± 0.025 | -0.062 ± 0.03 | 0.003 ± 0.021 | -0.005 ± 0.0057 | -0.0175 ± 0.018 | 0.014 ± 0.027 | 0.0075 ± 0.016
5 | KF3CT:MMP-9 | 0.012 ± 0.024 | -0.003 ± 0.0042 | 0.0075 ± 0.0021 | -0.0405 ± 0.03 | -0.0045 ± 0.022 | -0.026 ± 0.016 | -0.006 ± 0.055 | 0.011 | -0.0205 ± 0.022 | -0.0225 ± 0.0064 | -0.0225 ± 0.0092 | -0.044 ± 0.0099 | -0.015 ± 0.023 | -0.029 ± 0.025 | -0.031 ± 0.041 | -0.078 ± 0.028 | -0.0305 ± 0.019 | -0.0275 ± 0.018 | -0.016 ± 0.023 | -0.014 ± 0.047 | -0.027 ± 0.045
6 | 4H:CCL2/MCP-1 | -0.0115 ± 0.071 | -0.031 ± 0.081 | -0.0305 ± 0.053 | 0.009 ± 0.048 | 0.0135 ± 0.018 | 0.025 ± 0.014 | -0.0135 ± 0.079 | 0.0055 ± 0.074 | 0.0205 ± 0.049 | 0.0085 ± 0.015 | -0.008 ± 0.0028 | 0.0145 ± 0.029 | 0.0095 ± 0.044 | -0.051 ± 0.035 | -0.0675 ± 0.005 | -0.081 ± 0.052 | -0.0115 ± 0.013 | -0.015 ± 0.042 | 0.004 ± 0.035 | 0.006 ± 0.14 | -0.043 ± 0.037
7 | KF3CT:CD54/ICAM-1 | -0.0265 ± 0.00071 | -0.014 ± 0.016 | -0.0025 ± 0.015 | -0.035 ± 0.028 | -0.014 ± 0.025 | -0.0115 ± 0.021 | -0.0425 ± 0.018 | -0.0095 ± 0.019 | -0.003 ± 0.014 | 0.001 ± 0.0085 | 0.008 ± 0.021 | 0 ± 0.011 | -0.0025 ± 0.019 | -0.007 ± 0.0057 | 0.008 ± 0.0071 | 0.022 ± 0.016 | -0.016 | 0.001 ± 0.025 | -0.0285 ± 0.0064 | 0.0015 ± 0.022 | 0 ± 0.016
8 | HDF3CGF:CXCL10/IP-10 | 0.0265 ± 0.067 | 0.022 ± 0.027 | -0.007 ± 0.0057 | -0.021 ± 0.037 | -0.0055 ± 0.0078 | -0.006 ± 0.011 | -0.497 ± 0.0078 | 0.0125 ± 0.011 | -0.0015 ± 0.018 | -0.033 ± 0.014 | -0.0435 ± 0.0035 | -0.114 ± 0.076 | -0.0145 ± 0.03 | -0.0175 ± 0.005 | -0.0445 ± 0.005 | -0.04 ± 0.025 | -0.011 ± 0.035 | 0.005 ± 0.016 | -0.006 ± 0.027 | -0.01 ± 0.0042 | 0.012 ± 0.0028
9 | HDF3CGF:EGFR | -0.0195 ± 0.046 | -0.075 ± 0.035 | -0.0015 ± 0.019 | -0.001 ± 0.0071 | -0.0365 ± 0.049 | 0.0175 ± 0.069 | -0.0025 ± 0.028 | 0.0155 ± 0.015 | -0.002 ± 0.034 | 0.016 ± 0.05 | 0.0115 ± 0.043 | -0.035 ± 0.14 | -0.025 ± 0.062 | -0.02 ± 0.041 | -0.039 ± 0.05 | -0.0145 ± 0.0035 | -0.014 ± 0.0014 | -0.0015 ± 0.088 | -0.0165 ± 0.025 | 0.007 ± 0.013 | -0.0165 ± 0.005
10 | MyoF:TIMP-1 | 0.01 ± 0.035 | 0.001 ± 0.071 | -0.021 ± 0.033 | 0.042 ± 0.0071 | -0.056 ± 0.062 | 0.008 ± 0.0014 | 0.022 ± 0.028 | -0.035 ± 0.025 | 0.0185 ± 0.00071 | 0.036 ± 0.0085 | 0.0395 ± 0.011 | -0.058 ± 0.0014 | -0.015 ± 0.0057 | -0.0545 ± 0.025 | -0.023 ± 0.023 | -0.0085 ± 0.077 | -0.0585 ± 0.03 | -0.018 ± 0.033 | -0.0555 ± 0.042 | -0.0065 ± 0.043 | -0.014 ± 0.013
11 | BT:sTNF-alpha | 0.116 ± 0.093 | 0.127 ± 0.013 | 0.114 ± 0.093 | -0.061 ± 0.15 | 0.038 ± 0.067 | 0.0265 ± 0.056 | -0.306 ± 0.086 | -0.0115 ± 0.018 | 0.065 ± 0.0099 | 0.009 ± 0.031 | -0.0095 ± 0.14 | -0.0015 ± 0.16 | 0.0435 ± 0.096 | -0.047 ± 0.034 | -0.184 ± 0.04 | -0.637 ± 0.093 | 0.133 ± 0.051 | 0.182 ± 0.058 | -0.006 ± 0.086 | 0.056 ± 0.13 | 0.0755 ± 0.0092
12 | MyoF:PAI-I | 0.0155 ± 0.005 | 0.0155 ± 0.0021 | -0.0115 ± 0.0078 | -0.002 ± 0.018 | 0.0005 ± 0.00071 | 0.017 ± 0.0042 | 0 ± 0.018 | -0.0035 ± 0.033 | 0.002 ± 0.0071 | -0.001 ± 0.0028 | -0.025 ± 0.0057 | -0.12 ± 0.054 | -0.009 ± 0.041 | -0.005 ± 0.0042 | 0.0045 ± 0.0064 | 0.005 ± 0.02 | 0.011 ± 0.024 | -0.005 ± 0.018 | -0.003 ± 0.0071 | 0.0015 ± 0.005 | -0.003 ± 0.0028

Some of the entries so far, as comma-separated lines.
Row,Test System,level (log10) ([1]; 740 nM),level (log10) ([1]; 2200 nM),level (log10) [2],level (log10) [3],level (log10) [4],level (log10) [5],level (log10) [6],level (log10) [7],level (log10) (Perfluoro-1-iodohexane; 2200 nM),level (log10) (Perfluoro-1-iodohexane; 6700 nM),level (log10) (Perfluoro-1-iodohexane; 20000 nM),level (log10) (Perfluoro-1-iodohexane; 60000 nM),level (log10) ([8]; 2200 nM),level (log10) ([8]; 6700 nM),level (log10) ([8]; 20000 nM),level (log10) ([8]; 60000 nM),level (log10) [9],level (log10) [10],level (log10) (Hexafluoroamylene glycol),level (log10) ([11]; 740 nM),level (log10) ([11]; 2200 nM)
8,HDF3CGF:CXCL10/IP-10,0.0265 ± 0.067,0.022 ± 0.027,-0.007 ± 0.0057,-0.021 ± 0.037,-0.0055 ± 0.0078,-0.006 ± 0.011,-0.497 ± 0.0078,0.0125 ± 0.011,-0.0015 ± 0.018,-0.033 ± 0.014,-0.0435 ± 0.0035,-0.114 ± 0.076,-0.0145 ± 0.03,-0.0175 ± 0.005,-0.0445 ± 0.005,-0.04 ± 0.025,-0.011 ± 0.035,0.005 ± 0.016,-0.006 ± 0.027,-0.01 ± 0.0042,0.012 ± 0.0028
9,HDF3CGF:EGFR,-0.0195 ± 0.046,-0.075 ± 0.035,-0.0015 ± 0.019,-0.001 ± 0.0071,-0.0365 ± 0.049,0.0175 ± 0.069,-0.0025 ± 0.028,0.0155 ± 0.015,-0.002 ± 0.034,0.016 ± 0.05,0.0115 ± 0.043,-0.035 ± 0.14,-0.025 ± 0.062,-0.02 ± 0.041,-0.039 ± 0.05,-0.0145 ± 0.0035,-0.014 ± 0.0014,-0.0015 ± 0.088,-0.0165 ± 0.025,0.007 ± 0.013,-0.0165 ± 0.005
